Measurements: the supplement of paper PMC11006884
Shown are results outside the selection of targets with a hit, which stands elsewhere. This is a noisy data set. This is a selection; strong and weak results do not stand in their true shares.

Protein sequences, listed by entry. Tags and fused reporters are not part of them. Lines headed by an entry give the natural chain unless they say otherwise; changes in a name come on top.
UniProt Q14694, whole entry, looked up: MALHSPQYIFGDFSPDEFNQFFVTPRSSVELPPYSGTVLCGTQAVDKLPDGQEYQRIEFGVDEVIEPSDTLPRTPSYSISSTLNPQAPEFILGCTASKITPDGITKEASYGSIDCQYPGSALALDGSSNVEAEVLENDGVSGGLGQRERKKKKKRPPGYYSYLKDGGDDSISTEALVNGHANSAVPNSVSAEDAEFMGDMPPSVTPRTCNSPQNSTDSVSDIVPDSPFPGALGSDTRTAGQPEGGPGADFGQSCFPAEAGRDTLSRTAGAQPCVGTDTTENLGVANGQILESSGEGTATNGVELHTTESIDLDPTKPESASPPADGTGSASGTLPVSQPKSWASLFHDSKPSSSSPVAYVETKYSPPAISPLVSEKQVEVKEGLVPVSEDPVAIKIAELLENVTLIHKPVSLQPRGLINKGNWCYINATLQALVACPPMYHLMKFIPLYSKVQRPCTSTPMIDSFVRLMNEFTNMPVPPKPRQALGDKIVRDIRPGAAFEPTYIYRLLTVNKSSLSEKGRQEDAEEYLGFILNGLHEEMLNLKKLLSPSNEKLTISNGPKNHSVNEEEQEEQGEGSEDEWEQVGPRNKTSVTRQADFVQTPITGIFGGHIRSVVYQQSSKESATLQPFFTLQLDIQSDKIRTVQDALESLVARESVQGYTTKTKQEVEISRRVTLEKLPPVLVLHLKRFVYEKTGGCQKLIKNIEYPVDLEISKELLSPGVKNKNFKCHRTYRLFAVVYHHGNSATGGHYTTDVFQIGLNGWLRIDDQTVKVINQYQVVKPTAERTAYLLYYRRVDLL
UniProt Q14151: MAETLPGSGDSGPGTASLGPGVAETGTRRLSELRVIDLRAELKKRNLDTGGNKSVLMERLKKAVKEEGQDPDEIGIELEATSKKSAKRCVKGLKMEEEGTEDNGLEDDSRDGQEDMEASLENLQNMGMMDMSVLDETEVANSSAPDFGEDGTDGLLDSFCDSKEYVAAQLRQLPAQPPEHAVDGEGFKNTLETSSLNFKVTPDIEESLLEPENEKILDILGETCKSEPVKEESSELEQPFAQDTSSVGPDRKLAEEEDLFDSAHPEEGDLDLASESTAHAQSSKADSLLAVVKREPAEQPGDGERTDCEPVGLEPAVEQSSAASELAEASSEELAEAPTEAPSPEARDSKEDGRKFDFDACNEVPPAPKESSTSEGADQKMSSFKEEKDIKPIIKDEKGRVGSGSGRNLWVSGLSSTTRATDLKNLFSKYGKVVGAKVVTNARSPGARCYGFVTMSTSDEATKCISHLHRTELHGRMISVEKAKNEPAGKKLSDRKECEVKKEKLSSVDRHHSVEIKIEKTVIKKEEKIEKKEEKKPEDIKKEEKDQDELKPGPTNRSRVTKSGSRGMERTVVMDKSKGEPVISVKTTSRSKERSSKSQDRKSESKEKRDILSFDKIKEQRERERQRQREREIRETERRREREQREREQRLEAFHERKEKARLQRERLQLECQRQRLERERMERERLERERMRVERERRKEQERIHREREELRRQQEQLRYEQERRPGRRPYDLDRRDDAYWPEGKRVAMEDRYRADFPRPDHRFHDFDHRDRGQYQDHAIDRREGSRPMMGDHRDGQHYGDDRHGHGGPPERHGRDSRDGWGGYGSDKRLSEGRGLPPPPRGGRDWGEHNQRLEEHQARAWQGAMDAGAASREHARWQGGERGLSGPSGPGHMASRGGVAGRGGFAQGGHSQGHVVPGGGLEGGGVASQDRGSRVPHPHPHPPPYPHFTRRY
UniProt Q14152, whole entry, looked up: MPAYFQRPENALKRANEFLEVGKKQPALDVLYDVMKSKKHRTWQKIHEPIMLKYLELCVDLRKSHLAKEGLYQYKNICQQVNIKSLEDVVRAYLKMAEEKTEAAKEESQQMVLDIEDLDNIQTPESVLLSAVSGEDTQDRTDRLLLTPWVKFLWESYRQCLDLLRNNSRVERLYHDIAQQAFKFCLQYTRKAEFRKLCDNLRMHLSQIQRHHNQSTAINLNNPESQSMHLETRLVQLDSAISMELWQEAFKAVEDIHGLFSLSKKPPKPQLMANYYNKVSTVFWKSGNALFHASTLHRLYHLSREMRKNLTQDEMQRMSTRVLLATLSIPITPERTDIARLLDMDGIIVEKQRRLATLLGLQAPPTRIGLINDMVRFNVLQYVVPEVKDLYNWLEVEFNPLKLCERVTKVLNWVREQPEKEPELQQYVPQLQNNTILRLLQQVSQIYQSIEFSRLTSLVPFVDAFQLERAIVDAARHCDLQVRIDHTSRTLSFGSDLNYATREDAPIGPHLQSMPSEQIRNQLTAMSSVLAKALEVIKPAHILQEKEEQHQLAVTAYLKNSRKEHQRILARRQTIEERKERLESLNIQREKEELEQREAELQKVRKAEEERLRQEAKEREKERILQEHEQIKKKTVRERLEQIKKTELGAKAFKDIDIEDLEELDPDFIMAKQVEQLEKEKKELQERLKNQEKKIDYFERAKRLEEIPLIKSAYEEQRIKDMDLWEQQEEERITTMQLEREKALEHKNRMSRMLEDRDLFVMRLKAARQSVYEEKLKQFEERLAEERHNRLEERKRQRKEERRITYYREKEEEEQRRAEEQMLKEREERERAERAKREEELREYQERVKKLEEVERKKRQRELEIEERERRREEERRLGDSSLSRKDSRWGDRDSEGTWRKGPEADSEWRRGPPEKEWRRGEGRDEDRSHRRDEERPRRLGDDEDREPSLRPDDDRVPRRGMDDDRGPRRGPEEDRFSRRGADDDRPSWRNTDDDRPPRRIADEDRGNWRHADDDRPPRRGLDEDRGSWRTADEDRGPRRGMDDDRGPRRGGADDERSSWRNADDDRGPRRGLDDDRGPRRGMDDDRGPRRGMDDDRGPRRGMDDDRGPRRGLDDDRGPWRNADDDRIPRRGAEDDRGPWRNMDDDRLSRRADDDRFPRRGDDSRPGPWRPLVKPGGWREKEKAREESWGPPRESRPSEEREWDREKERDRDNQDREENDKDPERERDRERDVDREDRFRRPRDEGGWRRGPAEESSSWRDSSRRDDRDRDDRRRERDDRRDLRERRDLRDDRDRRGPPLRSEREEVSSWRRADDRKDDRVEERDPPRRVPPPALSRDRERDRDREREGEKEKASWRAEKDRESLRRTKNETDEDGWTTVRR
UniProt Q13642: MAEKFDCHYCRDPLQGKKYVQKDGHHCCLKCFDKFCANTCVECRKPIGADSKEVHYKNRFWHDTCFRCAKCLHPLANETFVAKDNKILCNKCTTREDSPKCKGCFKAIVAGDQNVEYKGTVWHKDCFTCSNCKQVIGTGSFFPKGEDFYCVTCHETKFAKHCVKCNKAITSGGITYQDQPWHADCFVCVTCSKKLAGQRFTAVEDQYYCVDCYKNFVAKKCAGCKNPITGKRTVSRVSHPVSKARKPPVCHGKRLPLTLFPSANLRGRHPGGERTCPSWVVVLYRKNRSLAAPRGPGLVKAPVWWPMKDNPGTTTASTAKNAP
UniProt Q14676: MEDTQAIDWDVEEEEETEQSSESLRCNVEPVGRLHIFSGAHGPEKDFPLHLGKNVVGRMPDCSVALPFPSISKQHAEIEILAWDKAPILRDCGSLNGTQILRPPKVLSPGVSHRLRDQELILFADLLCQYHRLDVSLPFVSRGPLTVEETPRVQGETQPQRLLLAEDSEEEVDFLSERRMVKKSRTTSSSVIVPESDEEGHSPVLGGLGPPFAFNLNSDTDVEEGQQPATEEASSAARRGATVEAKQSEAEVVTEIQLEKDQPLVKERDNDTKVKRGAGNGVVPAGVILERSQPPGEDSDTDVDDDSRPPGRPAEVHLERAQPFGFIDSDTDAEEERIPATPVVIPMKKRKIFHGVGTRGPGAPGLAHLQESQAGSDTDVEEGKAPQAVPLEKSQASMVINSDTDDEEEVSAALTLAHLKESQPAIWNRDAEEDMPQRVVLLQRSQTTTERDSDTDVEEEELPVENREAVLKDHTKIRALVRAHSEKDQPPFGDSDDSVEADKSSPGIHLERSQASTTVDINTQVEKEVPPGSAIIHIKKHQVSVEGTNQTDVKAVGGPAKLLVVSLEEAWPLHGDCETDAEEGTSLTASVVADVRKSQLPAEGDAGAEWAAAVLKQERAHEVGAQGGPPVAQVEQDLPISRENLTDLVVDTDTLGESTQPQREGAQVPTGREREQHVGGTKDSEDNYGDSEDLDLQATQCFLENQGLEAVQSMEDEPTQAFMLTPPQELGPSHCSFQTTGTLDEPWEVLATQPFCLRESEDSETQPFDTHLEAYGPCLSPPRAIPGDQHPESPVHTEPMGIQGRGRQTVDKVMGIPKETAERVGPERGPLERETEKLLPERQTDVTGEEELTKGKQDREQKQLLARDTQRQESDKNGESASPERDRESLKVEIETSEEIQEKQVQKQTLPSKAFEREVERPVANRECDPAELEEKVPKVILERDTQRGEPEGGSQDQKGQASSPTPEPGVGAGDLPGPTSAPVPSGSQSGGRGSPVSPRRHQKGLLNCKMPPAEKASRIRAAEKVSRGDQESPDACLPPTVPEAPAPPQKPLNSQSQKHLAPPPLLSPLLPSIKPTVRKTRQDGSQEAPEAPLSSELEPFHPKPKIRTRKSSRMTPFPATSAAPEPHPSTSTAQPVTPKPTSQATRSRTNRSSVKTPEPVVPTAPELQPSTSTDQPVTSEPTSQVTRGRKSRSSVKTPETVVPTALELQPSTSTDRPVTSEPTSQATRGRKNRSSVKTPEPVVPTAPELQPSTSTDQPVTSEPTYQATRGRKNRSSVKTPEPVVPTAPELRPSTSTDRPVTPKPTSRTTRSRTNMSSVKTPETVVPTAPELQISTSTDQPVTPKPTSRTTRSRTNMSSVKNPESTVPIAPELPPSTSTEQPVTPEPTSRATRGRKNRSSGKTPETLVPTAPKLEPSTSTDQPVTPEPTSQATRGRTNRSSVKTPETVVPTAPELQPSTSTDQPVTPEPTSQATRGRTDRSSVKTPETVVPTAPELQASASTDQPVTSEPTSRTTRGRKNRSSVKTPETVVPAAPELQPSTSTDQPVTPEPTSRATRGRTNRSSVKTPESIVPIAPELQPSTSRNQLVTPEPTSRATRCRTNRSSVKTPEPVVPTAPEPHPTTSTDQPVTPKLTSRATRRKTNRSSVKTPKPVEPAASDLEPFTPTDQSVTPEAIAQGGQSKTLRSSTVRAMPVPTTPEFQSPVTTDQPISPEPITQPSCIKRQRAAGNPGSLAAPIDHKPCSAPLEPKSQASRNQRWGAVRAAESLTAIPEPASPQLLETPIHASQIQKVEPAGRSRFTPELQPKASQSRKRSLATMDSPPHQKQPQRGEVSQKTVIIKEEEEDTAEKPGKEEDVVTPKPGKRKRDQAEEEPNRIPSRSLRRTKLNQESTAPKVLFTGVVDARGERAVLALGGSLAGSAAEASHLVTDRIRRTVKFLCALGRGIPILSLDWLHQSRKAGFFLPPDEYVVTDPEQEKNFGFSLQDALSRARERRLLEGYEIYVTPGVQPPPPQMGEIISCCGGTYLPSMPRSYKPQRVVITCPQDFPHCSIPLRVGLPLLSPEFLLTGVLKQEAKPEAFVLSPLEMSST
UniProt Q14574: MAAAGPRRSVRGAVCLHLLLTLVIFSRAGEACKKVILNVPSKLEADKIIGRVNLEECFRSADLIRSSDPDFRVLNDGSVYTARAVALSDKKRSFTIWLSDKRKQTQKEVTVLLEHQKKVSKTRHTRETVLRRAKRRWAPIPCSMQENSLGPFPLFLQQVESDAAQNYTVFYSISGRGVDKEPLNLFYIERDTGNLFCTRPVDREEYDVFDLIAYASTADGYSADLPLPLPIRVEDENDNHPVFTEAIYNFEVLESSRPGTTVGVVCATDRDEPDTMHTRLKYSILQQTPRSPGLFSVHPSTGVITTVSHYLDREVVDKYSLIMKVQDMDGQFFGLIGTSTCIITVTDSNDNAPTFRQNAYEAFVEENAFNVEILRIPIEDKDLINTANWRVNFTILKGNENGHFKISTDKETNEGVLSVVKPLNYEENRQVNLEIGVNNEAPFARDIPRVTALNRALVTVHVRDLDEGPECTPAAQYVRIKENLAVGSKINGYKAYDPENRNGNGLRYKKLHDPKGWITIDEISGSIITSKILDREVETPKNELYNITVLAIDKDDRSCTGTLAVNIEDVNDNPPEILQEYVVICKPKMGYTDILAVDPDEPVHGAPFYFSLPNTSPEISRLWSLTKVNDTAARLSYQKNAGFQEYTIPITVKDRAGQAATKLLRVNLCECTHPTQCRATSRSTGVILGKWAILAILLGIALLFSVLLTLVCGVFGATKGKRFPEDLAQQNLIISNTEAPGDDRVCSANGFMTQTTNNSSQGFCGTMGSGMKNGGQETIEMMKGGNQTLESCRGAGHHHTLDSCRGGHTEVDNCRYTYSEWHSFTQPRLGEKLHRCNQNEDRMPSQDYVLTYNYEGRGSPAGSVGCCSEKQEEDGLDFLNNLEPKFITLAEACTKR

Compound: COC(=O)/C=C/c1ccccc1 [methyl cinnamate]
Assay: log2 ratio of iodoacetamide-alkyne labeling of the cysteine site, DMSO over compound (competition); higher = stronger covalent engagement of the cysteine by the compound, active = 1 or more
Conditions: 500 µM; treatment time 1 h; system: HEK293T cell lysate
Summary of the method: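 Reporter intensities give each cysteine's log2 competition ratio as the mean of control channels over the mean of compound channels. The samples were HEK293T lysate (2 mg/mL) given vehicle or electrophile (500 µM, 1 h, ambient temperature), then iodoacetamide alkyne (1 h), followed by click coupling to sCIP-TMT reagents, pooling, trypsin digestion overnight at 37 °C, streptavidin enrichment, acid elution, Orbitrap Eclipse LC-MS/MS with FAIMS and FragPipe quantification. Duplicate channels and three replicates were run, and cysteines quantified in only one replicate were discarded.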

log2 ratio of iodoacetamide-alkyne labeling, inactive:
FLNC C1109 (UniProt Q14315) -0.162, ITPR3 C1638 (UniProt Q14573) 0.188, GAMT C91 (UniProt Q14353) 0.107, HLTF C360 (UniProt Q14527) -0.178, NUMA1 C803 (UniProt Q14980) 0.145, GAPVD1 C741 (UniProt Q14C86) 0.268, PUM1 C5 (UniProt Q14671) 0.453, CKAP5 C1946 (UniProt Q14008) 0.43, GOLGB1 C1257 (UniProt Q14789) 0.147, USP10 C254 (UniProt Q14694) 0.273, SNW1 C250 (UniProt Q13573) 0.123, SNX1 C318 (UniProt Q13596) 0.193, PDCD11 C361 (UniProt Q14690) 0.114, POLA2 C590 (UniProt Q14181) 0.0391, SPTAN1 C1314 (UniProt Q13813) 0.141, DYNC1H1 C4510 (UniProt Q14204) 0.103, GALE C196 (UniProt Q14376) -0.00548, MCM6 C185 (UniProt Q14566) 0.147, DRAP1 C73 (UniProt Q14919) 0.0375, NCAPH C418 (UniProt Q15003) 0.0364, NUMA1 C1136 (UniProt Q14980) 0.183, NCAPH C714 (UniProt Q15003) 0.255, SAFB2 C672 (UniProt Q14151) 0.166, FHL3 C10 (UniProt Q13643) 0.0675, CKAP5 C1203 (UniProt Q14008) 0.125, EIF3A C78 (UniProt Q14152) 0.153, FHL1 C150 (UniProt Q13642) -0.0485, FHL1 C65 (UniProt Q13642) -0.142, DYNC1H1 C2594 (UniProt Q14204) -0.116, MORC3 C619 (UniProt Q14149) 0.147, FHL2 C132 (UniProt Q14192) 0.202, DIP2A C6 (UniProt Q14689) 0.25, RRP1B C386 (UniProt Q14684) 0.348, MDC1 C1720 (UniProt Q14676) -0.0874, UniProt Q13557_C373 0.412, RRP1B C583 (UniProt Q14684) 0.294, FHL1 C185 (UniProt Q13642) -0.145, UniProt Q14574_C471 0.00547
